Earlier results on four molecules are cited in US9939427B2, “Method for evaluating the scent performance of perfumes or perfume mixtures” (Symrise AG, priority 2013, dated 2018).

The conditions of the data set: specific anosmia to the primary odorant in humans; cited from earlier work.
Consider `CC(C)C=O` [Isobutyr aldehyde, Isobutyraldehyde], for which the Anosmia occurrence is 36%.

`O=C1CCCCCCCCCCCCCCO1` [Pentadecanolide, ω-cyclopentadecanolide]: the Anosmia occurrence is on record as 12%.

Turning to `C[C@]12CCC(=O)C[C@@H]1CC[C@@H]1[C@@H]2CC[C@]2(C)C=CC[C@@H]12` [Androstenon, 5α-Androst-16-en-3-one], the Anosmia occurrence is listed as 47%.

As to `CC(C)CC(=O)O` [Isovaleric acid], the Anosmia occurrence is 3%.
